Values from PubChem BioAssay AID1224828 (NIAID, 2016).
Screen: 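Knock-downs that increase or decrease LPS-induced p65 nuclear translocation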 (primary screen). Cells: mouse RAW264.7 G9 macrophage reporter cells (GFP-p65, Tnf promoter-mCherry). Reagent: siRNA pool against mouse genes, 100 nM. Timing: 2 days siRNA transfection, then 40 min LPS before fixation. Treatment: LPS (Salmonella minnesota R595) at 10 ng/ml. Read-out: 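Imaged p65 nuclear translocation ratio, normalised to the plate median, converted to robust z-scores and averaged across two replicates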. Direction: p65 translocation robust z-score: higher = more nuclear NF-kappaB p65 after LPS than the plate median; nuclear/cytoplasmic p65 ratio: higher = more nuclear NF-kappaB p65. Call rule: 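Active if robust z is above 3.3 (negative regulators) or below -1.56, the Tlr4 control median (positive regulators); activity score 50 or more; control wells not called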. Calls: active = hit (p65 shift raised or lowered); inactive = no clear change.
Here is one part, drawn at random, of about 17,000 reagents. In the full data, 762 (4.5%) are marked active. 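Active calls include both raised and lowered p65 entry, mostly lowered; wells with fewer than 50 cells lack a z-score.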 Raw values vary from plate to plate and are shown uncorrected.

Against Zfp341 (zinc finger protein 341), the values are p65 translocation robust z-score -1.03; nuclear/cytoplasmic p65 ratio, rep 1 = 1.28; nuclear/cytoplasmic p65 ratio, rep 2 = 1.11; low cell count flag enough cells to score; inactive.
Gpatch11 (G patch domain containing 11) showed nuclear/cytoplasmic p65 ratio, rep 1 = 1.31; nuclear/cytoplasmic p65 ratio, rep 2 = 1.24; low cell count flag fewer than 50 cells per well; well left out of scoring; inactive.
For Oxct2a (3-oxoacid CoA transferase 2A), the values are nuclear/cytoplasmic p65 ratio, rep 1 = 0.999; nuclear/cytoplasmic p65 ratio, rep 2 = 1.03; low cell count flag fewer than 50 cells per well; well left out of scoring; inactive.
Against Sec13 (SEC13 homolog, nuclear pore and COPII coat complex component), the values are nuclear/cytoplasmic p65 ratio, rep 1 = 1.8; nuclear/cytoplasmic p65 ratio, rep 2 = 1.26; low cell count flag fewer than 50 cells per well; well left out of scoring; inactive.
Depletion of Dnajc27 (DnaJ heat shock protein family (Hsp40) member C27) gave: p65 translocation robust z-score -1.22; nuclear/cytoplasmic p65 ratio, rep 1 = 1.43; nuclear/cytoplasmic p65 ratio, rep 2 = 1.44; low cell count flag enough cells to score; inactive.
For Cdc5l (cell division cycle 5-like) the deposit lists p65 translocation robust z-score 3.07; nuclear/cytoplasmic p65 ratio, rep 1 = 1.92; nuclear/cytoplasmic p65 ratio, rep 2 = 1.74; low cell count flag enough cells to score; inactive.
Depletion of N4bp3 (NEDD4 binding protein 3) gave: p65 translocation robust z-score -1.23; nuclear/cytoplasmic p65 ratio, rep 1 = 1.28; nuclear/cytoplasmic p65 ratio, rep 2 = 1.34; low cell count flag enough cells to score; inactive.
Silencing of Or7a39 (olfactory receptor family 7 subfamily A member 39) gave: p65 translocation robust z-score -0.04; nuclear/cytoplasmic p65 ratio, rep 1 = 1.62; nuclear/cytoplasmic p65 ratio, rep 2 = 1.42; low cell count flag enough cells to score; inactive.
Silencing of Htr3b (5-hydroxytryptamine (serotonin) receptor 3B) came out at: nuclear/cytoplasmic p65 ratio, rep 1 = 1.42; nuclear/cytoplasmic p65 ratio, rep 2 = 1.67; low cell count flag fewer than 50 cells per well; well left out of scoring; inactive.
Knock-down of Ddost (dolichyl-di-phosphooligosaccharide-protein glycotransferase) gave: p65 translocation robust z-score 1.35; nuclear/cytoplasmic p65 ratio, rep 1 = 1.43; nuclear/cytoplasmic p65 ratio, rep 2 = 1.77; low cell count flag enough cells to score; inactive.
For Uckl1 (uridine-cytidine kinase 1-like 1), the values are nuclear/cytoplasmic p65 ratio, rep 1 = 1.57; nuclear/cytoplasmic p65 ratio, rep 2 = 1.43; low cell count flag fewer than 50 cells per well; well left out of scoring; inactive.
Silencing of Syn1 (synapsin I) gave: p65 translocation robust z-score 2.1; nuclear/cytoplasmic p65 ratio, rep 1 = 1.72; nuclear/cytoplasmic p65 ratio, rep 2 = 2; low cell count flag enough cells to score; inactive.
Nptn (neuroplastin) showed p65 translocation robust z-score -0.41; nuclear/cytoplasmic p65 ratio, rep 1 = 1.33; nuclear/cytoplasmic p65 ratio, rep 2 = 1.2; low cell count flag enough cells to score; inactive.
Knock-down of Kif5b (kinesin family member 5B) gave: p65 translocation robust z-score 0.66; nuclear/cytoplasmic p65 ratio, rep 1 = 1.62; nuclear/cytoplasmic p65 ratio, rep 2 = 1.42; low cell count flag enough cells to score; inactive.

3 entries from above, reduced to “nuclear/cytoplasmic p65 ratio, rep 1”.
Gpatch11 (G patch domain containing 11): 1.31
Oxct2a (3-oxoacid CoA transferase 2A): 0.999
Sec13 (SEC13 homolog, nuclear pore and COPII coat complex component): 1.8

Continued:
Silencing of H2-M11 (histocompatibility 2, M region locus 11) came out at: p65 translocation robust z-score 0.55; nuclear/cytoplasmic p65 ratio, rep 1 = 1.68; nuclear/cytoplasmic p65 ratio, rep 2 = 1.67; low cell count flag enough cells to score; inactive.
Prtg (protogenin) gave nuclear/cytoplasmic p65 ratio, rep 1 = 1.54; nuclear/cytoplasmic p65 ratio, rep 2 = 1.35; low cell count flag fewer than 50 cells per well; well left out of scoring; inactive.
After knock-down of Or5j1 (olfactory receptor family 5 subfamily J member 1), the screen gave p65 translocation robust z-score 0.93; nuclear/cytoplasmic p65 ratio, rep 1 = 1.83; nuclear/cytoplasmic p65 ratio, rep 2 = 1.69; low cell count flag enough cells to score; inactive.
Pde12 (phosphodiesterase 12) gave p65 translocation robust z-score 0.7; nuclear/cytoplasmic p65 ratio, rep 1 = 1.45; nuclear/cytoplasmic p65 ratio, rep 2 = 1.55; low cell count flag enough cells to score; inactive.
With knock-down of Myot (myotilin) the results were p65 translocation robust z-score 1.01; nuclear/cytoplasmic p65 ratio, rep 1 = 1.59; nuclear/cytoplasmic p65 ratio, rep 2 = 1.7; low cell count flag enough cells to score; inactive.
Against Ppp1r14a (protein phosphatase 1, regulatory inhibitor subunit 14A), the entry reads p65 translocation robust z-score -0.38; nuclear/cytoplasmic p65 ratio, rep 1 = 1.44; nuclear/cytoplasmic p65 ratio, rep 2 = 1.36; low cell count flag enough cells to score; inactive.
Against Ankzf1 (ankyrin repeat and zinc finger domain containing 1), the values are p65 translocation robust z-score -0.34; nuclear/cytoplasmic p65 ratio, rep 1 = 1.66; nuclear/cytoplasmic p65 ratio, rep 2 = 1.36; low cell count flag enough cells to score; inactive.
